These are yes or no findings as the source states them, for the method shown. Some entries that bind do so weakly or less than the wild type.
Legend:
Experiment in all cases: displacement of NDP-MSH from the receptor
[1] = target: melanocortin receptor 5 (human) (UniProt P33032)
[2] = target: melanocortin receptor 1 (human) (UniProt Q01726)
[3] = target: melanocortin receptor 3 (human) (UniProt P41968)

By UniProt entry, the sequences of proteins in these tests, tags left out.
UniProt P33032: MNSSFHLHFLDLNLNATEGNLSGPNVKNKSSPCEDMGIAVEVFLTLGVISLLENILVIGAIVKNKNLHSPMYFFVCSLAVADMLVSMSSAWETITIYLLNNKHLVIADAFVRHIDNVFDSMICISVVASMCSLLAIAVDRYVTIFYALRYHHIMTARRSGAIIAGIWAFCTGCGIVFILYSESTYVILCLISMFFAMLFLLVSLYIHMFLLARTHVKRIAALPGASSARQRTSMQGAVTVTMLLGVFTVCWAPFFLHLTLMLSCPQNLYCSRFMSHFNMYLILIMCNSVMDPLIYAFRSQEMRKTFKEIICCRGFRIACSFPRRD
UniProt Q01726: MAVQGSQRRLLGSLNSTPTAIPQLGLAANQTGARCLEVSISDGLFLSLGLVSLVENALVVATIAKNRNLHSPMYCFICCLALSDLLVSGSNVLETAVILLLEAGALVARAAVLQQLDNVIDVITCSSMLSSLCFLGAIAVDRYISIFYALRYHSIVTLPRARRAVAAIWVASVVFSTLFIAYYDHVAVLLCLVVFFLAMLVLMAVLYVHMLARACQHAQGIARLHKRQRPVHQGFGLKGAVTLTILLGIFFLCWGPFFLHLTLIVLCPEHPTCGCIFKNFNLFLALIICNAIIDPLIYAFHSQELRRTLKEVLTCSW
UniProt P41968: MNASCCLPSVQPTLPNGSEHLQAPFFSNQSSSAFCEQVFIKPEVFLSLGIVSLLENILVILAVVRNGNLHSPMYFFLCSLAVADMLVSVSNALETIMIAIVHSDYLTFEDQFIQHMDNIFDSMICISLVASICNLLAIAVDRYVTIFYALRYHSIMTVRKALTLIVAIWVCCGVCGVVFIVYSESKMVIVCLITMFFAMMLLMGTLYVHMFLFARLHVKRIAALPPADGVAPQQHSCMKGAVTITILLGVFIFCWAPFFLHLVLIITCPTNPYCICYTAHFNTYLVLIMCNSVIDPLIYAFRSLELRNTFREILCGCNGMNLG

binding [1]: binds
binding [2]: binds
binding [3]: binds
Binder: CVRLHESCLGQQVPCCDPAATCYCRFFNAFCYCR (N-terminal acetyl group (Ac); C-terminal amide (-NH2); four disulfide bonds) [mini-AGRP Ac-…-NH2]

Source: patent US20030064921A1, “Methods and compounds for modulating melanocortin receptor ligand binding and activity” (The Regents of the University of California, priority 1999, published 2003)
